## Primary screen of a compound library

The values are deposited in ChEMBL (CHEMBL3988442, “University of Dundee, Small-Polar-MMV Screening Library” (2021)).

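Phenotypic screen: M. tuberculosis growth, glucose 7H9 medium, 3 days; the read-out is not stated. Compounds at 50 µM. Higher reads as more growth inhibition (inferred: compounds with an IC50 in retests scored well above the rest). About 69,000 compounds were tested under these conditions; 1.1% (about 760) showed 50% or more at least once.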

Results are given as percent effect. The controls that fix the scale are not given in the record; negative values are as filed. The compounds are a random part of those screened. Two or more numbers in one place are separate tests of the same structure; such repeats can differ widely.

{"smiles": "CC(C)(C(=O)N1CCCC(OCc2cccnc2)C1)n1cccc1", "stereo": "stereo unspecified", "percent effect": 10.19}
{"smiles": "CC(C)CN1CC(C(=O)NCCc2c[nH]cn2)CC1=O", "stereo": "stereo unspecified", "percent effect": 21.42}
{"smiles": "CN(C)C(=O)CNC(CC(F)(F)F)c1ccc(Cl)cc1", "stereo": "stereo unspecified", "percent effect": "-3.05 & 17.25"}
{"smiles": "Cc1cccc(N2CCN(C(=O)Cc3ccccc3O)C(C)C2)n1", "stereo": "stereo unspecified", "percent effect": -18.88}
{"smiles": "N#Cc1ccc(S(=O)(=O)Nc2ccc(N3CCOCC3)cn2)cc1", "percent effect": "-1.021 & 3.793"}
{"smiles": "Cc1cc(CN(C)C(=O)c2ccc(Cl)cc2N2CCCC2=O)no1", "percent effect": "-35.86 & -0.4355"}
{"smiles": "CC(C)(C)NC(=O)[C@@H]1Cc2ccccc2CN1Cc1cccs1", "percent effect": -33.95}
{"smiles": "CC(NC(=O)Nc1nnc(-c2ccccn2)s1)C(=O)OC(C)(C)C", "stereo": "stereo unspecified", "percent effect": 20.16}
{"smiles": "COc1ccccc1Oc1ncccc1CNC(=O)C(C)N1CCCC1", "stereo": "stereo unspecified", "percent effect": "20.35 & -3.771"}
{"smiles": "Cc1ccc(-n2cnc(Cl)c2CO)cc1", "percent effect": -10.12}
{"smiles": "CCC(CNS(C)(=O)=O)Oc1ccccc1F", "stereo": "stereo unspecified", "percent effect": -0.3174}
{"smiles": "CCc1nccn1-c1cncc(C2CCCN2Cc2ccccc2)n1", "stereo": "stereo unspecified", "percent effect": 1.422}
{"smiles": "CCCC(=O)N1CCCC(c2ccccn2)C1", "stereo": "stereo unspecified", "percent effect": 9.754}
{"smiles": "CCc1nsc(N2CCN(C(=O)COc3ccccc3)CC2)n1", "percent effect": -3.717}
{"smiles": "O=C(NC1CC1)c1ccnc(-c2cc(NCCO)nc3[nH]ccc23)c1", "percent effect": 4.885}
{"smiles": "[H][C@@]12CCN(C[C@@H]1CN1CCCC1)[C@@H](CNS(=O)(=O)c1ccc(Cl)cc1)C2", "percent effect": "-18.72 & 2.7"}
{"smiles": "O=C(O)C(F)(F)F.[H][C@@]12COC[C@@H](CC(=O)N3CCOCC3)[C@]1([H])CN(Cc1ccc(F)cc1)C2", "percent effect": -15.35}
{"smiles": "Cc1cc(-c2cnn(CCNC(=O)C3CC3)c2C2CC2)on1", "percent effect": -23.25}
{"smiles": "O=C(O)C(F)(F)F.O=C(O)C(F)(F)F.[H][C@@]12CCN(Cc3nccs3)C[C@]1([H])O[C@@H](C(=O)Nc1cccnc1)C2", "percent effect": 5.293}
{"smiles": "Cc1ccccc1OCC1CCCN(C(=O)CN(C)C2CCNCC2)C1", "stereo": "stereo unspecified", "percent effect": "44.35 & 15.06"}
{"smiles": "COc1cc(C2Nc3cc(Cl)ccc3C3=NCCN32)cc(OC)c1OC", "stereo": "stereo unspecified", "percent effect": 38.8}
{"smiles": "Cn1nnn(-c2ccc(NS(=O)(=O)c3ccc(F)c(Cl)c3)cc2)c1=O", "percent effect": "-4.282 & 7.118"}
{"smiles": "CCOc1ccnc(N2CCN(C(=O)c3ccoc3)CC2)n1", "percent effect": -6.291}
{"smiles": "CCN1CCN(C(=O)c2ccc(Cn3ccccc3=O)o2)CC1", "percent effect": -15.73}
{"smiles": "Cc1cc(C(=O)N2C[C@@H](CN3CCOCC3)C[C@H](CO)C2)nc(C)n1", "percent effect": "11.54 & 1.044"}
{"smiles": "CCCS(=O)(=O)N1CCC2(CC1)COCCN(C(C)=O)C2", "percent effect": "-20.2 & -2.273"}
{"smiles": "O=C(NCc1ccc(Br)cc1)NCC1CCOC1", "stereo": "stereo unspecified", "percent effect": 17.59}
{"smiles": "Cc1nc(C)n(CC2CCCN(CC(=O)Nc3c(C)n[nH]c3C)C2)n1", "stereo": "stereo unspecified", "percent effect": -14.62}
{"smiles": "Cc1[nH]c2ccc(C#N)cc2c1CCNc1ncnc2c1CCNCC2", "percent effect": 40.18}
{"smiles": "COc1c(CNCc2ccc(CN(C)C)cc2)c(C)nn1C", "percent effect": -5.351}
{"smiles": "Cc1ccc(OCCCNC(=O)Cc2nc3ncccn3n2)cc1", "percent effect": -21.32}
{"smiles": "CSc1nc(C2CC2)nc(C)c1C(=O)NCc1ncc(C)o1", "percent effect": 23.9}
{"smiles": "Cc1nc2ccccc2nc1CN(C)CC1CCCN1c1cccnn1", "stereo": "stereo unspecified", "percent effect": 5.694}
{"smiles": "O=C1CCCC2=C1C(c1ccc(Cl)cc1Cl)Nc1nonc1N2", "stereo": "stereo unspecified", "percent effect": "-8.176 & 6.085"}
{"smiles": "CS(=O)(=O)N1CCC(c2nnc3ccc(C(=O)N4CCCC4)cn23)C1", "stereo": "stereo unspecified", "percent effect": 3.236}